Reference: PubChem BioAssay AID1224827 (NIAID, 2016)
This is an unselected part of about 3,800 reagents tested. Over the whole deposit, about 2,200 (57%) were called active. 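Active means a strong reporter change in either direction; calls are per siRNA, not per gene; qiagen siRNAs gave weaker effects.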 Unmarked entries are inactive. Reagents against one gene are numbered here. Not all columns of the deposit are shown. Reagent sequences are not shown.

Purpose: 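Confirm genes whose knock-down changes LPS-driven TNF promoter activity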 (follow-up of hits)
Cells: RAW264.7 G9 mouse macrophage reporter clone
Knock-down reagent: single siRNA against mouse genes, 100 nM siRNA
Timing: siRNA for 2 days, then LPS about 16 h
Conditions: bacterial lipopolysaccharide (LPS), 10 ng/ml, cells fixed after overnight (about 16 h) stimulation
Measured: 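Imaged nuclear TNF reporter intensity, background removed, scaled per plate and to non-targeting control wells, as z-scores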
Direction: TNF reporter z-score, mean: higher = stronger Tnf promoter reporter signal
Hit rule: 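Active siRNA: replicate-mean z-score of 2 or more, or -2 or less; no calls for control wells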

target gene,reagent,"TNF reporter z-score, mean"
Med25,1,2.61 (active)
Med25,2,-0.651
Med25,3,-1.9
Med25,4,-0.837
Med25,5,-2.07 (active)
Med25,6,-2.98 (active)
Ncoa5,1,4.24 (active)
Ncoa5,2,-1.37
Ncoa5,3,-2.68 (active)
Ncoa5,4,2.29 (active)
Ncoa5,5,0.845
Ncoa5,6,-2.57 (active)
Scgb1a1,1,-3.35 (active)
Scgb1a1,2,-3.75 (active)
Scgb1a1,3,-4.5 (active)
Scgb1a1,4,2.15 (active)
Scgb1a1,5,1.63
Scgb1a1,6,1.2
Klf12,1,-2.38 (active)
Klf12,2,-2.62 (active)
Klf12,3,-5.05 (active)
Cebpd,1,-2.93 (active)
Cebpd,2,-3.1 (active)
Cebpd,3,-3.52 (active)
Cebpd,4,2.53 (active)
Cebpd,5,1.44
Cebpd,6,-0.789

Individual results from the list.
For “TNF reporter z-score, mean”, Cebpd #5 reads 1.44
Result for Med25 #3 under “TNF reporter z-score, mean”: -1.9
For “TNF reporter z-score, mean”, Cebpd #6 reads -0.789

The listing continues:
target gene,reagent,"TNF reporter z-score, mean"
Hnrnph1,1,-3.41 (active)
Hnrnph1,2,-4.46 (active)
Hnrnph1,3,-5.15 (active)
Hnrnph1,4,1.34
Hnrnph1,5,0.654
Hnrnph1,6,-0.619
Fam110a,1,-2.2 (active)
Fam110a,2,-2.51 (active)
Fam110a,3,-4.52 (active)
Fam110a,4,2.66 (active)
Fam110a,5,0.607
Fam110a,6,-0.078
Fbxl22,1,0.971
Fbxl22,2,0.565
Fbxl22,3,-2.06 (active)
Fbxl22,4,0.377
Fbxl22,5,-1.2
Fbxl22,6,-1.37
Fech,1,-3.64 (active)
Fech,2,-4.07 (active)
Fech,3,-5.1 (active)
Fech,4,1.08
Fech,5,-0.0587
Fech,6,-0.361
Krtap19-1,1,-2.85 (active)
Krtap19-1,2,-3.5 (active)
Krtap19-1,3,-4.51 (active)
Krtap19-1,4,3.25 (active)
Krtap19-1,5,-0.00584
Krtap19-1,6,-2.38 (active)
